# Results are given in words; binding and its absence hold for the method and conditions named. In cells and extracts the contact can be indirect. Some results given as binding are weak or reduced against the parent protein; the word gives no strength.
# T1: SYP41 (Syntaxin of Plants 41) (Arabidopsis thaliana (endogenous in leaves)) (UniProt O65359)
# T1 sequence: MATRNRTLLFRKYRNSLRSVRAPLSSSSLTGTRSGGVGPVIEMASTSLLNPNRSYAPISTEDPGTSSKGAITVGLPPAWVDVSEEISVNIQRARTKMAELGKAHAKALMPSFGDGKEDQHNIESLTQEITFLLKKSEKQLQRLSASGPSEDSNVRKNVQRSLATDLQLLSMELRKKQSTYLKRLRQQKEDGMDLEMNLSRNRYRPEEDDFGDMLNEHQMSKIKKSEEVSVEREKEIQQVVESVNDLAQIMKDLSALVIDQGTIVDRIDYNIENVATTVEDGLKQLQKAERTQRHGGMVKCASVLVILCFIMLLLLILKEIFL
# Molecular target: T1, SYP41 (Syntaxin of Plants 41) (Arabidopsis thaliana (endogenous in leaves))
# Test: co-IP; SYP41 immunoprecipitated with anti-SYP41 antibodies (1:200) and protein A Sepharose from 0.5% Triton X-100-solubilized extracts of leaves of 4- to 6-week-old WT or vps45-3 Arabidopsis plants, 4°C; washed with PBS with 0.1% Triton X-100; eluates immunoblotted for VPS45, SYP41, SYP61
row,binding,Binder
1,binds,"VPS45-3 protein (VPS45 with serine 284-to-phenylalanine substitution) (protein, UniProt O49048 1-569) MVLVTSVRDYINRMLQDISGMKVLILDSETVSNVSIVYSQSELLQKEVFLVEMIDSISVSKESMSHLKAVYFIRPTSDNIQKLRYQLANPRFGEYHLFFSNLLKDTQIHILADSDEQEVVQQVQEYYADFVSGDPYHFTLNMASNHLYMIPAVVDPSGLQRFSDRVVDGIAAVFLALKRRPVIRYQRTSDTAKRIAHETAKLMYQHESALFDFRRTESSPLLLVIDRRDDPVTPLLNQWTYQAMVHELIGLQDNKVDLKSIGSLPKDQQVEVVLSSEQDAFFKFNMYENFGDIGMNIKRMVDDFQQVAKSNQNIQTVEDMARFVDNYPEYKKMQGNVSKHVTLVTEMSKLVEARKLMTVSQTEQDLACNGGQGAAYEAVTDLLNNESVSDIDRLRLVMLYALRYEKENPVQLMQLFNKLASRSPKYKPGLVQFLLKQAGVEKRTGDLFGNRDLLNIARNMARGLKGVENVYTQHQPLLFQTMESITRGRLRDVDYPFVGDHFQQGRPQEVVIFMVGGTTYEESRSVALQNATNSGVRFILGGTAVLNSKRFLKDLEEAQRISRSGSHMV"
2,binds,"SYP61 (Syntaxin of Plants 61) (protein, UniProt Q946Y7 1-245) MSSAQDPFYIVKEEIQDSIDKLQSTFHKWERISPDMGDQAHVAKELVATCGSIEWQVDELEKAITVAAKDPSWYGIDEAELEKRRRWTSNARTQVRNVKSGVLAGKVSSGAGHASEVRRELMRMPNSGEASRYDQYGGRDDDGFVQSESDRQMLLIKQQDEELDELSKSVQRIGGVGLTIHDELVAQERIIDELDTEMDSTKNRLEFVQKKVGMVMKKAGAKGQMMMICFLLVLFIILFVLVFLT"

row,Binder,binding
1,"Arabidopsis thaliana VPS45 (Vacuolar Protein Sorting 45), wild type (protein, UniProt O49048 1-569) MVLVTSVRDYINRMLQDISGMKVLILDSETVSNVSIVYSQSELLQKEVFLVEMIDSISVSKESMSHLKAVYFIRPTSDNIQKLRYQLANPRFGEYHLFFSNLLKDTQIHILADSDEQEVVQQVQEYYADFVSGDPYHFTLNMASNHLYMIPAVVDPSGLQRFSDRVVDGIAAVFLALKRRPVIRYQRTSDTAKRIAHETAKLMYQHESALFDFRRTESSPLLLVIDRRDDPVTPLLNQWTYQAMVHELIGLQDNKVDLKSIGSLPKDQQVEVVLSSEQDAFFKSNMYENFGDIGMNIKRMVDDFQQVAKSNQNIQTVEDMARFVDNYPEYKKMQGNVSKHVTLVTEMSKLVEARKLMTVSQTEQDLACNGGQGAAYEAVTDLLNNESVSDIDRLRLVMLYALRYEKENPVQLMQLFNKLASRSPKYKPGLVQFLLKQAGVEKRTGDLFGNRDLLNIARNMARGLKGVENVYTQHQPLLFQTMESITRGRLRDVDYPFVGDHFQQGRPQEVVIFMVGGTTYEESRSVALQNATNSGVRFILGGTAVLNSKRFLKDLEEAQRISRSGSHMV",binds

# Source: publication PMC10009167
